In article doi:10.1101/2022.08.19.504532 (bioRxiv, 2022) one finds binding data, which are given here for one molecule.

Protein sequences, listed by entry. Tags and fused reporters are not part of them. Lines headed by an entry give the natural chain unless they say otherwise; changes in a name come on top. Chains listed by the source or under a name are the forms on record and can include a tag or linker.
3xFLAG-BIRC6 double mutant (BIRmut/ΔHelix) (Q9NR09, form named): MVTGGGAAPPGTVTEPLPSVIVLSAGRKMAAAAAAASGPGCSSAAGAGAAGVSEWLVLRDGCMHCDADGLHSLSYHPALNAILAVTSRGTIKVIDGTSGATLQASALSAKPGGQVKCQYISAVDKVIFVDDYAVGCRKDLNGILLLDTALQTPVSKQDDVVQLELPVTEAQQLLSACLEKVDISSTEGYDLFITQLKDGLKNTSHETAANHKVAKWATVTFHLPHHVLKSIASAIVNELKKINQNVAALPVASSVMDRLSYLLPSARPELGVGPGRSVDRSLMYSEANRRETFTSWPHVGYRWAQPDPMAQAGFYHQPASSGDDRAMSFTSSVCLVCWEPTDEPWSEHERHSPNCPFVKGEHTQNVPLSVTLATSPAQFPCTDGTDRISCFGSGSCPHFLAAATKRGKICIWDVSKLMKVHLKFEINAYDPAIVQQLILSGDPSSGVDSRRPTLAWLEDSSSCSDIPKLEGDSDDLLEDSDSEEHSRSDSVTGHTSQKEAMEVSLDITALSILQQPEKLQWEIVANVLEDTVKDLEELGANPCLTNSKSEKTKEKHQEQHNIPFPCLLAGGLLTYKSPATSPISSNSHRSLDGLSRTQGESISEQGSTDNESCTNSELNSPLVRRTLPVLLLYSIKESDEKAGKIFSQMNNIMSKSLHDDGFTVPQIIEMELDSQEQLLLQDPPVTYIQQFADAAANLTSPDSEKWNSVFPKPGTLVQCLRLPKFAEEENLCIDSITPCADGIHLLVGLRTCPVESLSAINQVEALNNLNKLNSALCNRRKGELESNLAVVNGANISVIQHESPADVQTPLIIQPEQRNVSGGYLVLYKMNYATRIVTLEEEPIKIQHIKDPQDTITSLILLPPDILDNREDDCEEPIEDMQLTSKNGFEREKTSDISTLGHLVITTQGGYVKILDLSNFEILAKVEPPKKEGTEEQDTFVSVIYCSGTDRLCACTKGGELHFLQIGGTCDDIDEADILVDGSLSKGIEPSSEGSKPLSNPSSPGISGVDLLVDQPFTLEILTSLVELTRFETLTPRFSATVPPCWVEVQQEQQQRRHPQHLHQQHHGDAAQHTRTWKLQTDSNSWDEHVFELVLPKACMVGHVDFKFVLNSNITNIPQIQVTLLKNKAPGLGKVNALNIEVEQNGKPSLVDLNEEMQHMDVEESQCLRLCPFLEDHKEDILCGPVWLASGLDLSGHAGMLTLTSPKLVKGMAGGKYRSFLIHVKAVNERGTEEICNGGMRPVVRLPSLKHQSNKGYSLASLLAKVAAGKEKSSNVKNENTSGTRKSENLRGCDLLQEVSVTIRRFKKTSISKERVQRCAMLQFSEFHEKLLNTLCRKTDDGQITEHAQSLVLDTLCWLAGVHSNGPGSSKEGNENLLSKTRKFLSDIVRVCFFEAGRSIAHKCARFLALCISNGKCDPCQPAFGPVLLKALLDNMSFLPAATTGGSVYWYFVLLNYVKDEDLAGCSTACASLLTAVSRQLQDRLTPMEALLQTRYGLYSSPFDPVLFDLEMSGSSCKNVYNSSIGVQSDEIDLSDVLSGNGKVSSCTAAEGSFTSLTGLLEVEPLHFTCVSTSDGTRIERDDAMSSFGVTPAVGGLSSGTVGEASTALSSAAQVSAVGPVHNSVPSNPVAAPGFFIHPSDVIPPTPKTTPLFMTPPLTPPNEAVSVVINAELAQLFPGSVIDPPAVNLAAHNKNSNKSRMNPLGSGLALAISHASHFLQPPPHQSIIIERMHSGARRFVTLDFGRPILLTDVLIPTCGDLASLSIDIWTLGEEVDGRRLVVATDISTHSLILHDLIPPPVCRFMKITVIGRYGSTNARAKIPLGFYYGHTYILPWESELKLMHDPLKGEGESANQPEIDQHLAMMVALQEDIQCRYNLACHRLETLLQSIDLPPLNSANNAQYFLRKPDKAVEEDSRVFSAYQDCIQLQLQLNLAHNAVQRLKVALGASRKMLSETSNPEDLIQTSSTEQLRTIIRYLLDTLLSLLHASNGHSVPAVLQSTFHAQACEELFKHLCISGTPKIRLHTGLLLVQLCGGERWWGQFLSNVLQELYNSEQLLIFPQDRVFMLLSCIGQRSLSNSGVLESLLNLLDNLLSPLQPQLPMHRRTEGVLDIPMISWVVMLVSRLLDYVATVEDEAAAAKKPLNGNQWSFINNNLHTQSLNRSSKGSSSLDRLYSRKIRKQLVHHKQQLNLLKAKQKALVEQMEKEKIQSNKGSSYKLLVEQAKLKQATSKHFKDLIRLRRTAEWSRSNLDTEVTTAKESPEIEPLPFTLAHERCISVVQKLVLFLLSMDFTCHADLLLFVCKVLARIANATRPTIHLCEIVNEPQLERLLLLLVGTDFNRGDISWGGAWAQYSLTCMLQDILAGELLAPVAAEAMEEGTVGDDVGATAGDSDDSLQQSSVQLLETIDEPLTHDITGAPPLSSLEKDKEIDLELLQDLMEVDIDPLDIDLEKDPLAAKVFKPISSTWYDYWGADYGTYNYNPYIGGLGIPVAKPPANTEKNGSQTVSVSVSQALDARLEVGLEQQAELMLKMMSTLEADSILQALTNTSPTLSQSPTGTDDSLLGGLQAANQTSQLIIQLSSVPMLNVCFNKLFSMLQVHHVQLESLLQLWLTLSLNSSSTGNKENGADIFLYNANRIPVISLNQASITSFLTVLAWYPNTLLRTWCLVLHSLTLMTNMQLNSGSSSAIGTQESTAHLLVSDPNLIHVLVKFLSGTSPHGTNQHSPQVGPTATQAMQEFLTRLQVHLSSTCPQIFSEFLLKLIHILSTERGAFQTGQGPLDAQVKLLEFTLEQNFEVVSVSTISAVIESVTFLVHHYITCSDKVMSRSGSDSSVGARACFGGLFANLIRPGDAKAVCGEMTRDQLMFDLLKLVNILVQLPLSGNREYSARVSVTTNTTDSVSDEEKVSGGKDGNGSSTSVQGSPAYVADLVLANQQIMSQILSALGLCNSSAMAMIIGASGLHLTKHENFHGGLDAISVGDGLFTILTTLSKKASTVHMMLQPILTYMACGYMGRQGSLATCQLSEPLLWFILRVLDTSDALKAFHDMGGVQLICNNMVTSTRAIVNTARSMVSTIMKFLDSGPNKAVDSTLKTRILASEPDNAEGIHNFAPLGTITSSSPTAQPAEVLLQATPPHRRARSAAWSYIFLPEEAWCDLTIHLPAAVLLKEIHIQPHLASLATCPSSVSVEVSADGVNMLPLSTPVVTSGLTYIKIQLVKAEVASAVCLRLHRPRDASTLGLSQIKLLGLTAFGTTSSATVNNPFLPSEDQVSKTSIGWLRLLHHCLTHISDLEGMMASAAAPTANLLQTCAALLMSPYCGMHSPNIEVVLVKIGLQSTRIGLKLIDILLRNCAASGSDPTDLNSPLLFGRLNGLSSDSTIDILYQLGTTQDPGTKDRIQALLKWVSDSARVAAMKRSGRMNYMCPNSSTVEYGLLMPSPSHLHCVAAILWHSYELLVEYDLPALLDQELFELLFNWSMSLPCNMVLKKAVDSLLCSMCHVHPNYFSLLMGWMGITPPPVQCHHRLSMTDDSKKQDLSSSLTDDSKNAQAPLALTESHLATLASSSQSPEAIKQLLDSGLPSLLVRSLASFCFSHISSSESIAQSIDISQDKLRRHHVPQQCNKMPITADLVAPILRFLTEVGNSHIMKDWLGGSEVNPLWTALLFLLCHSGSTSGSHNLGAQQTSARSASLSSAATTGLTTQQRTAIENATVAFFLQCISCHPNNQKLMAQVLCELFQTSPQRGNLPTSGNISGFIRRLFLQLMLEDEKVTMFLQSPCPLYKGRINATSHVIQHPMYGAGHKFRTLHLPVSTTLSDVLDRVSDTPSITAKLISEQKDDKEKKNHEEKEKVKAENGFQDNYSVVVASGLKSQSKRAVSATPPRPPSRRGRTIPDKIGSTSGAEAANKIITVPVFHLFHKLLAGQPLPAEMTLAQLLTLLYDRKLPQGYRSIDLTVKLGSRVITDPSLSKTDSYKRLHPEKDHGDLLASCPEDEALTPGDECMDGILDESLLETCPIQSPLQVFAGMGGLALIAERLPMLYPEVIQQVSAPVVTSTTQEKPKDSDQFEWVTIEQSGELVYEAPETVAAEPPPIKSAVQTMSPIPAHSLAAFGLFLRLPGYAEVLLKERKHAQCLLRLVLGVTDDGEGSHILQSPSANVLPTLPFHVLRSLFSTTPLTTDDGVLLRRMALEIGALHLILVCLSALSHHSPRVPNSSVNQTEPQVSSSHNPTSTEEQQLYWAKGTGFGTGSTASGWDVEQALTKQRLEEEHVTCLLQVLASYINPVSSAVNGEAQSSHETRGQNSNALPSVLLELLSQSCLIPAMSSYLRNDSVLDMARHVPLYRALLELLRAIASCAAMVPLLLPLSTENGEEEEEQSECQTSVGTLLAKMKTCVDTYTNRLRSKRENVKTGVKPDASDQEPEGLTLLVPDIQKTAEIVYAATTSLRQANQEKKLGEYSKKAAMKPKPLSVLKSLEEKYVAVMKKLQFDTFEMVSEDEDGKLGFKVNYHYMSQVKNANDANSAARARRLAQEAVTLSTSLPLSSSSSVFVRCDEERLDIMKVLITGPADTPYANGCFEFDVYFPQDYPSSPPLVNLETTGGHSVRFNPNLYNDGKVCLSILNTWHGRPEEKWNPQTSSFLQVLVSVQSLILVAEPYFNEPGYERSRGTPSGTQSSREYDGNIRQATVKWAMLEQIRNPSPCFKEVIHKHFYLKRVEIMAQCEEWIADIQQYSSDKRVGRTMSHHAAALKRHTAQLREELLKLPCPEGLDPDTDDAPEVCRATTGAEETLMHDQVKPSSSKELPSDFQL

Results are given in words; binding and its absence hold for the method and conditions named.

The target in this test is 3xFLAG-BIRC6 double mutant (BIRmut/ΔHelix) (human) (UniProt Q9NR09). The test can be described thus: FRET or BRET.

B1: BODIPY-labeled Smac-Cys (natural protein)
chain: AVPIAQKSEPHSLSSEALMRRAVSLVTDSTSTFLSQTTYALIEAITEYTKAVYTLTSLYRQYTSLLGKMNSEEEDEVWQVIIGARAEMTSKHQEYLKLETTWMTAVGLSEMAAEAAYQTGADQASITARNHIQLVKLQVEEVHQLSRKAETKLAEAQIEELRQKTQEEGEERAESEQEAYLREDC
modifications: BODIPY FL Maleimide on the introduced cysteine (degree of labeling 0.48)
As for B1, the binding entry is recorded as “no binding (tested: 4 µM)”.
